# According to the supplement of paper PMC4840960:
# ± gives the standard deviation of the averaged measurements. The list shows a part of the results. Part of the spread comes from offsets between plates or batches.
# Test system: E18 rat cortical neuron-glia co-culture
# Experiment: total nuclei (DAPI) / Olig2+ nuclei (ratio); higher = more depletion of OPC/OL lineage cells
# Details: 1 µM; treatment time: 8 days (DIV5-DIV13)
# Description: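 Primary E18 rat cortical co-cultures (neurons, astrocytes, OPC/OLs) in 96-well plates. NIH Clinical Collection compounds were added on DIV5 in myelination medium at 5 and 1 µM for 8 days, then cells were fixed on DIV13 and stained for MBP, Olig2 and DAPI. Myelination (contiguous aligned MBP fiber length per Olig2+ nucleus) was normalised to plate controls (0.1% DMSO = 0, 1 µM DAPT = 100) as % of DAPT. Each value is from duplicate wells with 4 image fields each. Fiber length/MBP is the fiber score divided by the MBP differentiation score; DAPI/Olig2 is the ratio of total to Olig2+ nuclei.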
row,Structure (SMILES),total nuclei
1,CN(CCCN1c2ccccc2CCc2ccccc21)CC(=O)c1ccc(Cl)cc1 [Lofepramine],3.8
2,Cc1cccc(CN2CCN(C(c3ccccc3)c3ccc(Cl)cc3)CC2)c1 (stereo unspecified) [Meclizine],5.54
3,O=c1c(-c2ccccc2)c1-c1ccccc1 [Diphenylcyclopropenone],5.1
4,CCOc1cc(CC(=O)N[C@@H](CC(C)C)c2ccccc2N2CCCCC2)ccc1C(=O)O [Repaglinide],2.8
5,CN1CCCC(n2nc(Cc3ccc(Cl)cc3)c3ccccc3c2=O)CC1 (stereo unspecified) [Azelastine],4.4
6,NC(Cc1cc(I)c(Oc2cc(I)c(O)c(I)c2)c(I)c1)C(=O)O (stereo unspecified) [Thyroxine],4.2
7,COCCCOc1ccnc(C[S+]([O-])c2nc3ccccc3[nH]2)c1C (stereo unspecified) [Rabeprazole],4.15
8,Cc1cccc(Nc2ccncc2S(=O)(=O)NC(=O)NC(C)C)c1 [Torsemide],2.84
9,COC(=O)C1=C(C)NC(C)=C(C(=O)OC(C)C)C1c1cccc2nonc12 (stereo unspecified) [Isradipine],2.67
10,NNCCc1ccccc1 [Phenelzine],4.21 ± 0.95
11,O=C(O)c1cc(=O)c2c(OCC(O)COc3cccc4oc(C(=O)O)cc(=O)c34)cccc2o1 [Cromolyn Sodium],5.49
12,CCc1nn(CCCN2CCN(c3cccc(Cl)c3)CC2)c(=O)n1CCOc1ccccc1 [Nefazodone],2.8
13,CCCCCCCCCCC[C@@H](C[C@@H]1OC(=O)[C@H]1CCCCCC)OC(=O)[C@H](CC(C)C)NC=O [Orlistat],4.1
14,Nc1nc(Cl)nc2c1ncn2[C@@H]1O[C@H](CO)[C@@H](O)[C@H]1O [2-Chloroadenosine],2.62
15,O=C(O[C@@H]1C[C@@H]2C[C@H]3C[C@H](C1)N2CC3=O)c1c[nH]c2ccccc12 [Dolasetron],2.93
16,Nc1ccc(S(=O)(=O)c2ccc(N)cc2)cc1 [Dapsone],4.49
17,C=C1/C(=C\C=C2/CCC[C@]3(C)[C@@H]([C@H](C)CCCC(C)(C)O)CC[C@@H]23)C[C@@H](O)C[C@@H]1O [Calcitriol],2.8
18,Cc1cc2c(s1)Nc1ccccc1N=C2N1CCN(C)CC1 [Olanzapine],3.17
19,CC(C)(C)NC[C@H](O)COc1nsnc1N1CCOCC1 [Timolol],2.73
20,CN(C)CCCC1(c2ccc(F)cc2)OCc2cc(C#N)ccc21 (stereo unspecified) [Citalopram],3.59 ± 0.91
21,CC(=O)Nc1nnc(S(N)(=O)=O)s1 [Acetazolamide],4.11

# Same assay, conditions: 5 µM; treatment time: 8 days (DIV5-DIV13)
row,Structure (SMILES),total nuclei
1,CN(CCCN1c2ccccc2CCc2ccccc21)CC(=O)c1ccc(Cl)cc1 [Lofepramine],> 40
2,Cc1cccc(CN2CCN(C(c3ccccc3)c3ccc(Cl)cc3)CC2)c1 (stereo unspecified) [Meclizine],33.8
3,O=c1c(-c2ccccc2)c1-c1ccccc1 [Diphenylcyclopropenone],> 40
4,CCOc1cc(CC(=O)N[C@@H](CC(C)C)c2ccccc2N2CCCCC2)ccc1C(=O)O [Repaglinide],3
5,CN1CCCC(n2nc(Cc3ccc(Cl)cc3)c3ccccc3c2=O)CC1 (stereo unspecified) [Azelastine],4.4
6,COCCCOc1ccnc(C[S+]([O-])c2nc3ccccc3[nH]2)c1C (stereo unspecified) [Rabeprazole],5.2
7,Cc1cccc(Nc2ccncc2S(=O)(=O)NC(=O)NC(C)C)c1 [Torsemide],2.7
8,COC(=O)C1=C(C)NC(C)=C(C(=O)OC(C)C)C1c1cccc2nonc12 (stereo unspecified) [Isradipine],24.9
9,NNCCc1ccccc1 [Phenelzine],> 40
10,O=C(O)c1cc(=O)c2c(OCC(O)COc3cccc4oc(C(=O)O)cc(=O)c34)cccc2o1 [Cromolyn Sodium],4.2
11,CCc1nn(CCCN2CCN(c3cccc(Cl)c3)CC2)c(=O)n1CCOc1ccccc1 [Nefazodone],3.6
12,CCCCCCCCCCC[C@@H](C[C@@H]1OC(=O)[C@H]1CCCCCC)OC(=O)[C@H](CC(C)C)NC=O [Orlistat],13.7
13,Nc1nc(Cl)nc2c1ncn2[C@@H]1O[C@H](CO)[C@@H](O)[C@H]1O [2-Chloroadenosine],2.7
14,O=C(O[C@@H]1C[C@@H]2C[C@H]3C[C@H](C1)N2CC3=O)c1c[nH]c2ccccc12 [Dolasetron],3
15,Nc1ccc(S(=O)(=O)c2ccc(N)cc2)cc1 [Dapsone],3.7
16,C=C1/C(=C\C=C2/CCC[C@]3(C)[C@@H]([C@H](C)CCCC(C)(C)O)CC[C@@H]23)C[C@@H](O)C[C@@H]1O [Calcitriol],3.4
17,Cc1cc2c(s1)Nc1ccccc1N=C2N1CCN(C)CC1 [Olanzapine],2.7
18,CC(C)(C)NC[C@H](O)COc1nsnc1N1CCOCC1 [Timolol],2.7
19,CN(C)CCCC1(c2ccc(F)cc2)OCc2cc(C#N)ccc21 (stereo unspecified) [Citalopram],3.87 ± 0.76
20,CC(=O)Nc1nnc(S(N)(=O)=O)s1 [Acetazolamide],4.1
